In publication PMC7809621:
Results are given in words; binding and its absence hold for the method and conditions named. In cells and extracts the contact can be indirect. These calls come from enrichment with a bait or labelling near it, and not all partners need be listed. Where a sequence is shown, tags or fusion partners need not be part of it.

Key:
[1] = molecular target: 6His-Flag-TMK1^cyt-K616R (isolated cytosolic domain of TMK1, kinase-dead) (Arabidopsis thaliana); assay: affinity purification with mass spectrometry; HA-MAKR2 co-expressed in E. coli with 6His-Flag-TMK1^cyt or its K616R form; soluble fraction on IMAC-nickel resin (20 mM Tris pH8, NaCl 150mM, imidazole washes, elution with 400 mM imidazole); eluate analysed by ESI/MS/MS
[2] = molecular target: 6His-Flag-TMK1^cyt (isolated cytosolic domain of TMK1, wild type) (Arabidopsis thaliana); assay: as above

B1: HA-MAKR2 (protein, UniProt Q9SH58 1-411)
chain: MEAFSLLNYWKNSGGAVTFLPHSSESSSSSLCRYSAGESIGTTTIVTSVTETEDEEADENDDEGPFFDLEFALPAEEEDTDGGVGREGDSDCTDGGCEFKFTLSSCSGGEDRVDPDSLDDVFFKETIVEEVEPPTSSEQQTCSVKAPAAQLSASILKTATKLRVFMLGMKKSKLIQAKSEANFGSEDLDKQTHPPPPLSLSPESQQKSTVTVNLKVEEVPIISLFSRENSSKNSSSSSSSSSSSSSSLKKQNGNESVVSDEKRFVMMQKYLKKVKPLYIRVSRRYGEKLRHSGQLTAPSSARSTAEKADSPVATKTNNKPGNNINIPAGLKVVRKHLGKSRSSSSTATTPSSTTATVTTQSESRRRDDSLLQQQDSIQSAILHCKRSFNSSRDKDPSVLPRSVSEPSSYEK
[1]
  binding: binds
[2]
  binding: binds
